## Percent effect of library compounds

Results are given as percent effect.
The record does not define 0% and 100%; most values in the screen are far below 50% and negative numbers occur (in some assays of this library far below -100).
The compounds are a random part of those screened.

T. brucei: 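Whole-parasite assay of Trypanosoma brucei over 72 hours; the read-out is not stated. Compounds at 30 µM. Direction is inferred from retests: higher values go with stronger inhibition. Values scatter widely below zero; nearly all retest evidence comes from the higher of the two concentrations used. Of about 64,000 compounds tested this way, about 940 (1.5%) reached 50% or more in at least one test.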
Toxoplasma: 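Assay of Toxoplasma gondii numbers, read through their beta-galactosidase reporter with a colour substrate. Concentration: 10 µM. Higher reads as fewer parasites (inferred from which compounds were picked for retests). Size under these conditions: about 67,000 compounds, about 260 of them at 50% or above in at least one test.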

- Cc1noc(C)c1Cc1nc(N(C)C)no1 | T. brucei: -9.809%; Toxoplasma: 0.599%
- CN(C)c1nc(NCCc2cnccn2)ncc1F | T. brucei: -43.14%; Toxoplasma: 6.08%
- Cc1nn(C)c(N(C)C)c1CNCc1ccnc(N2CCOCC2)c1 | T. brucei: -2.716%; Toxoplasma: 1.205%
- OC1(CNC2CCN(c3ccccn3)CC2)CCc2ccccc21 (configuration not stated) | T. brucei: 5.907%; Toxoplasma: 3.134%
- Cc1nc2ccccc2nc1CN1CCCC(Cn2cncn2)C1 (configuration not stated) | T. brucei: 22.89%; Toxoplasma: 3.822%
- CNC(=O)Cc1ccc(NC(=O)NCc2ncc(C)s2)cc1 | T. brucei: -22.32%; Toxoplasma: -1.169%
- Cn1nnc2c1CCN(C(=O)C1CC1)C2COCCN1CCCC1.O=C(O)C(F)(F)F (configuration not stated) | T. brucei: -10.62%; Toxoplasma: 1.577%
- O=C1CN(Cc2occc2C(=O)NCCc2ccc(F)cc2)CCN1 | T. brucei: -12.22%; Toxoplasma: 3.844%
- [H][C@@]12CNCC[C@]1(O)CCN(C(=O)C1(c3ccc(OC)cc3)CCCC1)C2 | T. brucei: -20.67%; Toxoplasma: 20.95%
- COc1c(F)cc(F)cc1-c1nc2c([nH]1)CCNC2 | T. brucei: -12.73%; Toxoplasma: -0.7275%
- Cc1ccc(O)c(C(=O)NCCCS(=O)(=O)Cc2ccccc2)c1 | T. brucei: 2.296%; Toxoplasma: -7.797%
- CCC(CC)C(=O)n1ccn(S(=O)(=O)c2ccc(C)cc2)c1=O | T. brucei: -15.96%; Toxoplasma: 1.438%
- Cc1cc(C(=O)N2Cc3ccccc3OC3(CCOCC3)C2)nc(N)n1 | T. brucei: -6.101%; Toxoplasma: 12.24%
- Cc1cc2ncc(CN(C)C)c(C3CCN(C)CC3)n2n1 | T. brucei: 99.05%; Toxoplasma: 22.06%
- COCCn1ccnc1-c1cc(CN2CCCCC2)cs1 | T. brucei: -28.07%; Toxoplasma: -1.959%
- O=C(Cn1cc(-c2ccccc2)cn1)NC(C1CC1)C1CC1 | T. brucei: 12.83%; Toxoplasma: 5.356%
- CC(NC(=O)NCc1ccccc1F)(C(=O)O)c1ccco1 (configuration not stated) | T. brucei: 11.36%; Toxoplasma: -14.56%
- COc1cc(C)c(S(=O)(=O)NCc2cccnc2N(C)C)c(C)c1 | T. brucei: 6.422%; Toxoplasma: 3.782%
- CCS(=O)(=O)c1ccc2oc([C@H]3CCN(Cc4ccncc4)C3)nc2c1 | T. brucei: -17.01%; Toxoplasma: -5.776%
- Cl.c1cn(-c2cncc(C3CCNCC3)n2)cn1 | T. brucei: -40.04%; Toxoplasma: -28.33%
- N#Cc1ccc(C(=O)N2CC(c3nc(-c4ncccn4)no3)C2)cc1 | T. brucei: 15.37%; Toxoplasma: 13.77%
- CCOc1ncnc2c1CCN(S(=O)(=O)c1ccccc1)CC2 | T. brucei: -0.2098%; Toxoplasma: 16.59%
- O=C1CN(c2cc(-c3ccccc3F)nc3ccnn23)CCCN1 | T. brucei: 17.4%; Toxoplasma: 2.482%
- COC(=O)N1CCc2ccccc2C1C(=O)NCc1nc(C)no1 (configuration not stated) | T. brucei: 15.52%; Toxoplasma: 8.752%
- COc1ccc(C)cc1CN1CCCC1c1noc(C2CC2)n1 (configuration not stated) | T. brucei: 105.3%; Toxoplasma: 5.17%

The last 2 entries again:

Compound,T. brucei,Toxoplasma
COC(=O)N1CCc2ccccc2C1C(=O)NCc1nc(C)no1 (configuration not stated),15.52,8.752
COc1ccc(C)cc1CN1CCCC1c1noc(C2CC2)n1 (configuration not stated),105.3,5.17

The values are deposited in ChEMBL (CHEMBL3988442, “University of Dundee, Small-Polar-MMV Screening Library” (2021)).